{"sequences": {"note": "Amino acid sequences for entries named in this document (tags omitted).", "UniProt A0A223PM23, entry or part of it": "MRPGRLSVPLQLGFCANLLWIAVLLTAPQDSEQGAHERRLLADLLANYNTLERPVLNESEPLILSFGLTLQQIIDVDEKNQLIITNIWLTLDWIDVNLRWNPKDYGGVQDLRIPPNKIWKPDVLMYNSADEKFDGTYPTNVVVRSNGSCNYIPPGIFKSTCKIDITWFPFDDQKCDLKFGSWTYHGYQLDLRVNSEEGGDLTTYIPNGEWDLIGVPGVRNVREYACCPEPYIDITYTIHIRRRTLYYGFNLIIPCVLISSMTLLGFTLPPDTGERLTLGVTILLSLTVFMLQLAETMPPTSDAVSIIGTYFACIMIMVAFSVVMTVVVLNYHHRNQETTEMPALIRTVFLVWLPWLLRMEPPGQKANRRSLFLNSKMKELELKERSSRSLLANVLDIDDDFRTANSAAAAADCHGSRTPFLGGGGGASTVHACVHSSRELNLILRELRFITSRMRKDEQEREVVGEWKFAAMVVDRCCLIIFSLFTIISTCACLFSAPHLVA"}, "source": "patent US12162913B2", "about": "(priority 2016, dated 2024)", "target": "R. microplus nAChRα6 (Rma6) homopentamers (Rhipicephalus microplus, UniProt A0A223PM23)", "test": "Two-electrode voltage clamp on Xenopus oocytes expressing Rmα6 homopentamers", "assay_type": "cell-based", "experimental": "The plasmids containing the sequences of choice were linearized using BeuI (Spel) FastDigest (ThermoFisher) restriction enzyme for 30 min at 37°, and an aliquot run on an agarose gel to check for complete linearization. The plasmid DNA was phenol:chloroform purified and ethanol precipitated. The pellet was re-suspended in deionized water. Capped RNA was synthesized using mMessage mMachine T7 kit from 1 μg linearized plasmid DNA, the sample phenol:chloroform purified and isopropanol precipitated. The pellet was re-suspended in deionized water to a concentration of 500 ng/μl, analysed on an agarose gel for integrity and stored at −80° C. until further use.\nXenopus laevis oocytes were purchased as whole ovaries from the European Xenopus Resource Centre (University of Portsmouth), delivered in less than 24 h in Modified Barth's Saline (MBS) on wet ice. Upon arrival, the oocytes were treated with 2 mg/ml collagenase type I (Sigma-Aldrich) in calcium-free Barth's solution (NaCl 88 mM, Tris-HCl 15 mM, NaHCO32.4 mM, MgCl2 0.82 mM, KCl 1 mM, pH 7.5) for 30 min at room temperature. […] Following ligand application, the current required to maintain the membrane potential at −60 mV was measured and used for subsequent data analysis. […]", "note": "For at least one compound, name, drawing or mass did not settle the structure.", "data": [{"smiles": "CC(=O)OCC[N+](C)(C)C", "note": "[ACh, acetylcholine]", "values": [{"measurement": "action on Rma6 receptor", "value": "high efficacy"}, {"measurement": "character of responses on Rma6", "value": "big, fast desensitizing inward currents"}]}]}
